Results are given in words; binding and its absence hold for the method and conditions named. In cells and extracts the contact can be indirect. A yes stands for co-enrichment or nearness to the bait. Other partners may have been found.

Protein sequences, listed by entry. Tags and fused reporters are not part of them. Lines headed by an entry give the natural chain unless they say otherwise; changes in a name come on top.
UniProt Q7SFS8: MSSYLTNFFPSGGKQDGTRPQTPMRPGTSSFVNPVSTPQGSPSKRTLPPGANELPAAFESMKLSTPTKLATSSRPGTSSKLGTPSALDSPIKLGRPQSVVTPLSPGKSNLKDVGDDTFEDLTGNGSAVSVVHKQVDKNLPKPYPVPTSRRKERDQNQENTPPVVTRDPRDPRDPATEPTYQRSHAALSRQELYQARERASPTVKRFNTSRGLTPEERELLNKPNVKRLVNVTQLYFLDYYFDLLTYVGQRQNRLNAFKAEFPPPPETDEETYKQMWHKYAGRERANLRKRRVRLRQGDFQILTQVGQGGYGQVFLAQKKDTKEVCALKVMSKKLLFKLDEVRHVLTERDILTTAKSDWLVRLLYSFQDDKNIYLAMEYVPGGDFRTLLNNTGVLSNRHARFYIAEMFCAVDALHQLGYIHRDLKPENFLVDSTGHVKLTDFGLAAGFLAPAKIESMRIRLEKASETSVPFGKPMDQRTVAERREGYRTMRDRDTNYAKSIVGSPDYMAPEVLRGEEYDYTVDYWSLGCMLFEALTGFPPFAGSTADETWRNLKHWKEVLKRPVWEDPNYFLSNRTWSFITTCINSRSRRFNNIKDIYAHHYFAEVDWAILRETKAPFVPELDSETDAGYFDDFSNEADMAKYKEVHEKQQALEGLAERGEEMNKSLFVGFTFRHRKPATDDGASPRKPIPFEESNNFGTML
UniProt Q7S789: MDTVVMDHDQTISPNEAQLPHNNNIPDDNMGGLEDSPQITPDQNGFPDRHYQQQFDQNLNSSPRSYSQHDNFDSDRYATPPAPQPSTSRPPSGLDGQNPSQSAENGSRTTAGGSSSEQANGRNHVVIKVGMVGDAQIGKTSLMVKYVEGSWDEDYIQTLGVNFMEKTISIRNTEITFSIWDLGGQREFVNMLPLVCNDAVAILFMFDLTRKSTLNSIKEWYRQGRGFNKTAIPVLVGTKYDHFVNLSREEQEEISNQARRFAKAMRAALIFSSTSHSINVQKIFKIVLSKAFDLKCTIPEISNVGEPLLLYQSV

In article PMC3998894 one finds binding data, which are given here for one substance.

The target in the assay is DBF-2-GFP (N. crassa) (UniProt Q7SFS8). Description: affinity purification with mass spectrometry; GFP-trap precipitation of GFP-fusion baits from N. crassa cell extracts, mass spectrometry; two independent biological replicates; control purifications from GFP-expressing cells.

For the substance SPG-1/NCU08878 (from UniProt Q7S789), the binding result is “binds”.
